Measured values: paper PMC8430637
No constants are given. Whether binding was seen depends on the method and setting. In cells and extracts the contact can be indirect. Some binding calls cover weakened binding; strength is not graded here. Tags and fused reporters may be left off the sequences shown.

By UniProt entry, the sequences of proteins in these tests, tags left out.
UniProt Q7Z6Z7: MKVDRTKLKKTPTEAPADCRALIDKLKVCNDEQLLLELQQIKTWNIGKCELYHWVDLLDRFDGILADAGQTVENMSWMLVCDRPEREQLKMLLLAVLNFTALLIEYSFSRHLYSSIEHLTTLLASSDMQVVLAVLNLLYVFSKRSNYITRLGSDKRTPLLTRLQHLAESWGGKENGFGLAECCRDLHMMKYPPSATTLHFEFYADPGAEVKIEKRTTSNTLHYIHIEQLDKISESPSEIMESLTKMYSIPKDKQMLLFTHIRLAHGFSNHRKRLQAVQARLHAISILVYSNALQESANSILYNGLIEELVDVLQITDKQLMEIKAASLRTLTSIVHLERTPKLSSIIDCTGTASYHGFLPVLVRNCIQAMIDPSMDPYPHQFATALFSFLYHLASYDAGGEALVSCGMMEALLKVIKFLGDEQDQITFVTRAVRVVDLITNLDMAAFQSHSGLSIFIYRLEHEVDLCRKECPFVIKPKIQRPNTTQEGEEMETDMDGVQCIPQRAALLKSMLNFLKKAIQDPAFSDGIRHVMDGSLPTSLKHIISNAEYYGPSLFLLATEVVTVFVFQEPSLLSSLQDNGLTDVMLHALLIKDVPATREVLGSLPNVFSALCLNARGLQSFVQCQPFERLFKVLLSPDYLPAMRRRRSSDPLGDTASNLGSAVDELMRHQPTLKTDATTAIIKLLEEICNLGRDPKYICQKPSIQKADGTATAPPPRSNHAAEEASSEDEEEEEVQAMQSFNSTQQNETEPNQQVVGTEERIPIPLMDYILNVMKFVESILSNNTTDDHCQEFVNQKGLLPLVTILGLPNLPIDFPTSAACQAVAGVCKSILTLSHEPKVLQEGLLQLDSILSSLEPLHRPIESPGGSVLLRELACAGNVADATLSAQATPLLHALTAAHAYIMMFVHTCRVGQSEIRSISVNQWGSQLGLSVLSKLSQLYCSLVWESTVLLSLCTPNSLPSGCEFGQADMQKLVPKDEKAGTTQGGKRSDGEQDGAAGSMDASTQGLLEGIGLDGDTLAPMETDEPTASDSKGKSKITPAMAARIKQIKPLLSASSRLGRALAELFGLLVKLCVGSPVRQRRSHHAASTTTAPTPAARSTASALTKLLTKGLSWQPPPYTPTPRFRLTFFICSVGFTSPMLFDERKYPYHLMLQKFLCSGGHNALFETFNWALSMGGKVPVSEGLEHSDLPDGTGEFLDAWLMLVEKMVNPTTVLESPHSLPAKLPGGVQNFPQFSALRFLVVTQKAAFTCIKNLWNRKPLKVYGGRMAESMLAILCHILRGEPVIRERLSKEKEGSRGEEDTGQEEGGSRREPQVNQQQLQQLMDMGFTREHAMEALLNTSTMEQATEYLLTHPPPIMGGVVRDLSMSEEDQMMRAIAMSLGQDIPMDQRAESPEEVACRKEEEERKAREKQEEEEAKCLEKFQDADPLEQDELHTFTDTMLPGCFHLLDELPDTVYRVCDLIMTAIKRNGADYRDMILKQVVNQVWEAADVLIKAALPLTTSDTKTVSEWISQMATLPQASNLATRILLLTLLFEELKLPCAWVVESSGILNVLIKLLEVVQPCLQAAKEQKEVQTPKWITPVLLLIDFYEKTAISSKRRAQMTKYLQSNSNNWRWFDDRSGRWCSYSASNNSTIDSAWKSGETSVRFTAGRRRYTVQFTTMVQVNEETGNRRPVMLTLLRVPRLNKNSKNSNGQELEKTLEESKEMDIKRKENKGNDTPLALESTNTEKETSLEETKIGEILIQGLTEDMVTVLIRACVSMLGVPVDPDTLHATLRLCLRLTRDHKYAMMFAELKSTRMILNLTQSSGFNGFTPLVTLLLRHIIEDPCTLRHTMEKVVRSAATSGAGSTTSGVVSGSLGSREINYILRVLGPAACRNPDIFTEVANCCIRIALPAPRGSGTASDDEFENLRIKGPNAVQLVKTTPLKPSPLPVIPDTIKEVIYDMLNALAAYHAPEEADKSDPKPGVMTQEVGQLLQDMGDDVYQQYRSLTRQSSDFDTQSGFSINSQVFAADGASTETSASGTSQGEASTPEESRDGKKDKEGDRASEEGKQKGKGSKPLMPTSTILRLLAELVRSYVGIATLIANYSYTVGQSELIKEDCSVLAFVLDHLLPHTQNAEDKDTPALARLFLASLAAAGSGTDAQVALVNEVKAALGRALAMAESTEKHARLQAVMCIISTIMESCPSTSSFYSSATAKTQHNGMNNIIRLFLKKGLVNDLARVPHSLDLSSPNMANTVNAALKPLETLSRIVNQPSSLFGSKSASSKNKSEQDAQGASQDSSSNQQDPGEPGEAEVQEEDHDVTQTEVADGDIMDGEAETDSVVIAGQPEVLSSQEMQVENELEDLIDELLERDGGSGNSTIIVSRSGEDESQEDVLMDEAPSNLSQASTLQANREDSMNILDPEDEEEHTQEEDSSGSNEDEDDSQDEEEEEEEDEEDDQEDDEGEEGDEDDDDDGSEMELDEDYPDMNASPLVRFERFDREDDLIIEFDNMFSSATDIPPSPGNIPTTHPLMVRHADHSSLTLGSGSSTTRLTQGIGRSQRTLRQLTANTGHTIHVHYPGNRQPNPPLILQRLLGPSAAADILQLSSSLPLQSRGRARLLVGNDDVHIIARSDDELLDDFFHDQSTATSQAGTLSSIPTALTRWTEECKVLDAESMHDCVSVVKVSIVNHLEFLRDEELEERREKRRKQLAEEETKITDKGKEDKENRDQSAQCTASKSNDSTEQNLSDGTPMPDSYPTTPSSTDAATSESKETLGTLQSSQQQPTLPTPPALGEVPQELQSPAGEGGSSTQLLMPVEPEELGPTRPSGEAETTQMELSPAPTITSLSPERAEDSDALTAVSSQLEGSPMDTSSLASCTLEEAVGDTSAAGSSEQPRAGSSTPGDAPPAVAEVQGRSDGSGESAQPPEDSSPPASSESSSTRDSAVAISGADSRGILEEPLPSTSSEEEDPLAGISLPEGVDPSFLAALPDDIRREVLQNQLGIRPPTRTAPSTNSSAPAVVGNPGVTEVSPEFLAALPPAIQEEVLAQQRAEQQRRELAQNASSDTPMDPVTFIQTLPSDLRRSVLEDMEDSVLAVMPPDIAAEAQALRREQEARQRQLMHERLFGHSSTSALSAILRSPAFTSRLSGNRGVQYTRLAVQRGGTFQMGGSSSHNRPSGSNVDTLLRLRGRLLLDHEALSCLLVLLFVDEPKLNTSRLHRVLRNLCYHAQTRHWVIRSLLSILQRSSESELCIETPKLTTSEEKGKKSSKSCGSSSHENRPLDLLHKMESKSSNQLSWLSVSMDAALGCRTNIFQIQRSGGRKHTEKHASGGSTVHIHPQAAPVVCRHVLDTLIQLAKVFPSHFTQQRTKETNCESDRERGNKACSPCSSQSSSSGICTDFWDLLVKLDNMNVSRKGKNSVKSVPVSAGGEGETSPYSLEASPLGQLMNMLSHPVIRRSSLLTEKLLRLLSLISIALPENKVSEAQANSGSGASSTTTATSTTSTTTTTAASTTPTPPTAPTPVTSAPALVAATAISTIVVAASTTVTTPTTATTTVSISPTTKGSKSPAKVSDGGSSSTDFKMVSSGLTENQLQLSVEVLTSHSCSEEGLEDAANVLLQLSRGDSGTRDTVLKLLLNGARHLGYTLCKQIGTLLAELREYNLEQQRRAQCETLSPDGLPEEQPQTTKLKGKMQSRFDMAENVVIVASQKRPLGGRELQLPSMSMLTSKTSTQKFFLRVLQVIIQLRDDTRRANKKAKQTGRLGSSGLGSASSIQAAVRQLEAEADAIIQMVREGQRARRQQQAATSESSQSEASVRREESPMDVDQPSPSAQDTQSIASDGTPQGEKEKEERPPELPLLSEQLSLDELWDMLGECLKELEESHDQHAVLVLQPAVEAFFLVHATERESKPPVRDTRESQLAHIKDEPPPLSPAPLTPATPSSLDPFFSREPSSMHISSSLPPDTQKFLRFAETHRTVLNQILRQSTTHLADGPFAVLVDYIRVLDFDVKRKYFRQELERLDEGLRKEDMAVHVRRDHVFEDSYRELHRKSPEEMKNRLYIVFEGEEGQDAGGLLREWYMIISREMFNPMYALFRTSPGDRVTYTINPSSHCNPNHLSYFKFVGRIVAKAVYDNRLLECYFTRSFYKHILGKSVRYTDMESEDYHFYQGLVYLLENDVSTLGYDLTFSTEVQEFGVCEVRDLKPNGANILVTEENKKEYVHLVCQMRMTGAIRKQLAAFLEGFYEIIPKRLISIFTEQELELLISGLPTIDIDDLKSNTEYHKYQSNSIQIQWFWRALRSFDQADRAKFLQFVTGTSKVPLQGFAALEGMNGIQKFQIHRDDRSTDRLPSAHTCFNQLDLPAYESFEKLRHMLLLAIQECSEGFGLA

B1: autophagy-related protein 101 (ATG101), endogenous (protein, UniProt Q9BSB4 1-218)
chain: MNCRSEVLEVSVEGRQVEEAMLAVLHTVLLHRSTGKFHYKKEGTYSIGTVGTQDVDCDFIDFTYVRVSSEELDRALRKVVGEFKDALRNSGGDGLGQMSLEFYQKKKSRWPFSDECIPWEVWTVKVHVVALATEQERQICREKVGEKLCEKIINIVEVMNRHEYLPKMPTQSEVDNVFDTGLRDVQPYLYKISFQITDALGTSVTTTMRRLIKDTLAL
B2: FLAG-ATG101 full length (protein, UniProt Q9BSB4 1-218)
chain: B1 chain

Biological target: HECT, UBA and WWE domain containing E3 ubiquitin protein ligase 1 (HUWE1), endogenous (human (endogenous in MIA PaCa-2)) (UniProt Q7Z6Z7)
Test: co-IP; anti-HUWE1 immunoprecipitation from cell lysate (1% NP-40, 150 mM NaCl, 20 mM Tris-HCl, 2 mM EDTA), protein A agarose, 4 °C; blot with anti-ATG101; cells in basal condition or amino acid-deprived medium for 2 h

Row | Binder | binding
1 | B1 | binds
2 | B2 | binds
